PubChem BioAssay AID1259298 – Sanger Institute – 2017
The deposit covers 794 reagents; below is an unselected part. Over the whole deposit, 20 (2.5%) were called active. 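Calls rest only on the knock-down-alone score; drug synergy scores played no part in them.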 Viability is capped at 1. The record does not give: the amount of reagent, the time to read-out.

- Purpose: 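Kinases whose loss strengthens killing by BYL719, cetuximab or trametinib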 (primary screen)
- Cells: HT55 human colorectal cancer cell line
- Reagents: siRNA pool against human genes
- Treatment: anchor drug BYL719 1 µM, cetuximab 5 µg/ml or trametinib 10 nM, or DMSO vehicle alone
- Detection: 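Replicate-averaged viability versus wells of non-targeting pool; knock-down-only robust z-score; per-drug synergy score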
- Direction: robust z-score, knock-down alone: higher = more cells remaining; low means essential gene; viability vs control pool, no drug: higher = more viable cells; synergy score with BYL719 and synergy score with cetuximab and synergy score with trametinib: higher = stronger synthetic lethality with the drug
- Hit rule: 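a gene counts as essential if its knock-down-alone robust z-score falls under -3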
- Calls: active = essential (knock-down alone); inactive = no change alone

no.	Gene	robust z-score, knock-down alone	viability vs control pool, no drug (fraction)	synergy score with BYL719	synergy score with cetuximab	synergy score with trametinib	activity call
1	ACSL6	0.58	1	-0.0746	-0.18	-0.0276	inactive
2	CAMK1G	-0.361	0.926	-0.161	-0.11	-0.016	inactive
3	ATM	0.197	0.97	-0.0921	-0.0106	0.114	inactive
4	RPS6KA5	-1.25	0.857	-0.125	-0.0106	0.0459	inactive
5	PCK1	-1.52	0.836	-0.205	-0.0737	0.0807	inactive
6	RAD21	0.114	0.964	-0.0768	-0.171	-0.0238	inactive
7	ROR2	0.58	1	-0.0462	0.0687	0.0902	inactive
8	CDK12	0.161	0.967	-0.0864	-0.000172	0.0663	inactive
9	CSNK1E	-0.475	0.918	-0.161	-0.243	-0.0798	inactive
10	MAP3K3	-0.294	0.932	-0.206	-0.0255	0.051	inactive
11	CRKL	0.58	1	-0.272	-0.204	-0.0433	inactive
12	IPPK	-1.79	0.815	-0.141	-0.261	-0.0253	inactive
13	NRBP2	-2.09	0.791	-0.0718	-0.132	0.000471	inactive
14	DGKB	-0.808	0.891	-0.109	0.0643	0.0108	inactive
15	MED12	0.563	0.999	-0.0984	-0.000285	-0.0207	inactive
16	BMAL1	-3.86	0.653	-0.186	-0.217	-0.097	active
17	CPNE3	0.58	1	-0.0747	-0.0231	0.0524	inactive
18	PI4KA	0.58	1	-0.267	-0.0903	-0.00727	inactive
19	PRKCI	-0.34	0.928	-0.198	-0.147	0.00204	inactive
20	PTK6	0.379	0.984	-0.267	-0.224	-0.0705	inactive
21	ITPKA	0.58	1	-0.101	-0.159	-0.0745	inactive
22	ACO1	-0.301	0.931	0.109	0.000951	0.071	inactive
23	MYO3B	-0.806	0.892	-0.216	0.00919	-0.0635	inactive
24	PCK2	0.58	1	-0.244	-0.211	-0.0837	inactive
25	ARID1A	-1.74	0.819	-0.266	-0.0386	-0.015	inactive
26	PHKB	0.58	1	-0.219	-0.143	-0.182	inactive
27	STK36	0.58	1	-0.184	-0.0948	-0.00973	inactive
28	TP53	-0.723	0.898	-0.0644	-0.0074	0.0301	inactive
29	GALK2	0.58	1	0.0269	-0.0139	0.203	inactive
30	ALDH18A1	0.58	1	-0.161	-0.0929	-0.187	inactive
31	PIM1	-0.983	0.878	-0.113	-0.148	0.072	inactive
32	PGK1	0.58	1	-0.164	-0.00563	-0.0229	inactive
33	HSPB8	-0.342	0.928	-0.179	-0.0556	0.00597	inactive
34	RPS6KA1	0.58	1	-0.0566	0.0158	0.0854	inactive

Not a retest: entries from further up.
no.	Gene	robust z-score, knock-down alone	viability vs control pool, no drug (fraction)	synergy score with BYL719	synergy score with cetuximab	synergy score with trametinib	activity call
21	ITPKA	0.58	1	-0.101	-0.159	-0.0745	inactive
22	ACO1	-0.301	0.931	0.109	0.000951	0.071	inactive
23	MYO3B	-0.806	0.892	-0.216	0.00919	-0.0635	inactive
24	PCK2	0.58	1	-0.244	-0.211	-0.0837	inactive
25	ARID1A	-1.74	0.819	-0.266	-0.0386	-0.015	inactive
26	PHKB	0.58	1	-0.219	-0.143	-0.182	inactive
